In US20110044988A1 one finds binding data, which are given here for one substance.

By UniProt entry, the sequences of proteins in these tests, tags left out.
UniProt P25025: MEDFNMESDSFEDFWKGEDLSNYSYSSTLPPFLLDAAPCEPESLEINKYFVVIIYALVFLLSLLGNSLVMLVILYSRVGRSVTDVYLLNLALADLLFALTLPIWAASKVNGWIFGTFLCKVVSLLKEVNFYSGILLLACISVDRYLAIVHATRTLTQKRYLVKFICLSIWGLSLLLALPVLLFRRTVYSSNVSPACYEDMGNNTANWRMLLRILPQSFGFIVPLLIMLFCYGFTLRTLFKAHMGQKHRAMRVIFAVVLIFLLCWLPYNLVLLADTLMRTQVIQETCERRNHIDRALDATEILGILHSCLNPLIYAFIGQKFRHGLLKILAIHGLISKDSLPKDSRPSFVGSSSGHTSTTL

The target in the test is T1, mouse CD74 (endogenous in L1.2 and RAW264.7 cells) (mouse) (UniProt P04441).
T1 sequence (looked up): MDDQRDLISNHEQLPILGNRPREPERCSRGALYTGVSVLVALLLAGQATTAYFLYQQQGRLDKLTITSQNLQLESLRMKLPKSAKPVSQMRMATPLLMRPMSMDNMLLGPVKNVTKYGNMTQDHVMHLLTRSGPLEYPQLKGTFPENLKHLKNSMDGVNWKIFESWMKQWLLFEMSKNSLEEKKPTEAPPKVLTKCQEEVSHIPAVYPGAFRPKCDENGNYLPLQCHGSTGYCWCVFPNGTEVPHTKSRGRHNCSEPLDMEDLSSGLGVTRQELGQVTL
The test is described as follows: coimmunoprecipitation with an antibody to CXCR2 from L1.2-CXCR2 cells, immunoblot with an antibody to mouse CD74. In general terms: A western blot detects proteins with antibodies after separation by electrophoresis.

These are yes or no findings as the source states them, for the method shown. Binding seen in cells or lysates may run through a third protein. Some entries that bind do so weakly or less than the wild type.

As to “human CXCR2 (from UniProt P25025 1-360) (receptor)”, the binding result is listed as “binds”.
